Measurements from US20050142634A1, “Novel modulator of non-genomic activity of nuclear receptors (mnar) and uses thereof” (Wyeth, priority 2001, published 2005).
These are yes or no findings as the source states them, for the method shown. In cells and extracts the contact can be indirect. Some binding calls cover weakened binding; strength is not graded here.

Chains of the proteins cited; added tags and fusions are not shown. Residues count along the entry.
UniProt P06239, residues 2-509: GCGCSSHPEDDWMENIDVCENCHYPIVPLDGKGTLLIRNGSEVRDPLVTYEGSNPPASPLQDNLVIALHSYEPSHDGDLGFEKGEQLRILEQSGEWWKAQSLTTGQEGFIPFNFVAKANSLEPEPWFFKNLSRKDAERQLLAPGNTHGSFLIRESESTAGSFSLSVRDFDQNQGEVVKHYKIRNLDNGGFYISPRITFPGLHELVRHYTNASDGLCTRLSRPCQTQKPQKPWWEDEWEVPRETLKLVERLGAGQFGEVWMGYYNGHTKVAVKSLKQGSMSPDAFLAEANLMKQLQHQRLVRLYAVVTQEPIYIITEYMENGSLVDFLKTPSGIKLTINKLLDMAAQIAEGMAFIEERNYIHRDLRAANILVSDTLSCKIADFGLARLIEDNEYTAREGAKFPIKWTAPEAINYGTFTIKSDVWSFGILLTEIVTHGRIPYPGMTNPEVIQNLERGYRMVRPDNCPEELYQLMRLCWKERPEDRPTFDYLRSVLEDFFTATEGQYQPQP
UniProt Q92731: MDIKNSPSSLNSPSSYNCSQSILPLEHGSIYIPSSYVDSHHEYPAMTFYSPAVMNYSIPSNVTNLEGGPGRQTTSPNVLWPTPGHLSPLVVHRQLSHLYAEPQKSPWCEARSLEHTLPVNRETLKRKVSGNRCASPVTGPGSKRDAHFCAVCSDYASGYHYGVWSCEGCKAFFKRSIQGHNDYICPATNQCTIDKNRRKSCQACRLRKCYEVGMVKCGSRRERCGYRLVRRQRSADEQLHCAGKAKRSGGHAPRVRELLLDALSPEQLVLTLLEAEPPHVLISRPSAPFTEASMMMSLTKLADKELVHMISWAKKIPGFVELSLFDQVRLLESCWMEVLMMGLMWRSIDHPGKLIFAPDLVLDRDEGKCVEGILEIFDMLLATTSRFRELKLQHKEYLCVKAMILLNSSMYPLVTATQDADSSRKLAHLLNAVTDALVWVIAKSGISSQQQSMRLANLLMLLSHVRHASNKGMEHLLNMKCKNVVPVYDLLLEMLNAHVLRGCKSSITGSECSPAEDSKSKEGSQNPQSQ
UniProt P03372: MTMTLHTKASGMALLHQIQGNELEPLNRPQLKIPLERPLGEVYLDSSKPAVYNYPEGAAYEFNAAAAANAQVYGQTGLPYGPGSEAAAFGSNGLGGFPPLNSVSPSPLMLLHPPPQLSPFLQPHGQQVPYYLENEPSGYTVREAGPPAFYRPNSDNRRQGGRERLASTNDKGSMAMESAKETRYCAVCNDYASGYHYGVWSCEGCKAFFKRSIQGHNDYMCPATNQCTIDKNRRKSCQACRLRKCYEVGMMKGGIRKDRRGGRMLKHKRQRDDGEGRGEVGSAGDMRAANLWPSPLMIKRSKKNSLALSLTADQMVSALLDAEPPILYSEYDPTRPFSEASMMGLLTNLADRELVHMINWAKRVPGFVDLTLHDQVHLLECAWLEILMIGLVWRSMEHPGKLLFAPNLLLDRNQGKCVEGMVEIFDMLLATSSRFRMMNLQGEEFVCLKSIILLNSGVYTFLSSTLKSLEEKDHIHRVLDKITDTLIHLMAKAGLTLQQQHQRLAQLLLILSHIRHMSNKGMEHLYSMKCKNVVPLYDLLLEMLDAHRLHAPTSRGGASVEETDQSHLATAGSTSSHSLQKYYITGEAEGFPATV
UniProt P04150: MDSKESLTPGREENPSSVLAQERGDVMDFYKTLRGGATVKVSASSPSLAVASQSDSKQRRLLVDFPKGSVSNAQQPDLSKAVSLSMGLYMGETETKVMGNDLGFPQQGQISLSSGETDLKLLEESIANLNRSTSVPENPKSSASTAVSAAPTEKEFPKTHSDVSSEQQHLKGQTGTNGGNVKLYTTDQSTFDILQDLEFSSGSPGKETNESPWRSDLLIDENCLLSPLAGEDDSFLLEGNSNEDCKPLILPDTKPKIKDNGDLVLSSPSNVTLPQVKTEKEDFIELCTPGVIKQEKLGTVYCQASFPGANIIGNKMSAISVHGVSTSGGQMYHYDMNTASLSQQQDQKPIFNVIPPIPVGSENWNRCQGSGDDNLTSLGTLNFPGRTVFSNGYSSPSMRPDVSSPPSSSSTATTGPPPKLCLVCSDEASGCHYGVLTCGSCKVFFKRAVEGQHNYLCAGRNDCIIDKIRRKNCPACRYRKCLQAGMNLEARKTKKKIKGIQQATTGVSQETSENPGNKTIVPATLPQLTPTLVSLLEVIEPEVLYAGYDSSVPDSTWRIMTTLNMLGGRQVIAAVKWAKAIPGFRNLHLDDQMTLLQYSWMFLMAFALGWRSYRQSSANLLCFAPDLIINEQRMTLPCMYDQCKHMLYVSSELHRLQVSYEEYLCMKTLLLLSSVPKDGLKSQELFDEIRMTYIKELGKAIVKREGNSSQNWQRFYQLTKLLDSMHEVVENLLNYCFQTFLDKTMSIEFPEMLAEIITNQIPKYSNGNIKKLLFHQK
UniProt P10275: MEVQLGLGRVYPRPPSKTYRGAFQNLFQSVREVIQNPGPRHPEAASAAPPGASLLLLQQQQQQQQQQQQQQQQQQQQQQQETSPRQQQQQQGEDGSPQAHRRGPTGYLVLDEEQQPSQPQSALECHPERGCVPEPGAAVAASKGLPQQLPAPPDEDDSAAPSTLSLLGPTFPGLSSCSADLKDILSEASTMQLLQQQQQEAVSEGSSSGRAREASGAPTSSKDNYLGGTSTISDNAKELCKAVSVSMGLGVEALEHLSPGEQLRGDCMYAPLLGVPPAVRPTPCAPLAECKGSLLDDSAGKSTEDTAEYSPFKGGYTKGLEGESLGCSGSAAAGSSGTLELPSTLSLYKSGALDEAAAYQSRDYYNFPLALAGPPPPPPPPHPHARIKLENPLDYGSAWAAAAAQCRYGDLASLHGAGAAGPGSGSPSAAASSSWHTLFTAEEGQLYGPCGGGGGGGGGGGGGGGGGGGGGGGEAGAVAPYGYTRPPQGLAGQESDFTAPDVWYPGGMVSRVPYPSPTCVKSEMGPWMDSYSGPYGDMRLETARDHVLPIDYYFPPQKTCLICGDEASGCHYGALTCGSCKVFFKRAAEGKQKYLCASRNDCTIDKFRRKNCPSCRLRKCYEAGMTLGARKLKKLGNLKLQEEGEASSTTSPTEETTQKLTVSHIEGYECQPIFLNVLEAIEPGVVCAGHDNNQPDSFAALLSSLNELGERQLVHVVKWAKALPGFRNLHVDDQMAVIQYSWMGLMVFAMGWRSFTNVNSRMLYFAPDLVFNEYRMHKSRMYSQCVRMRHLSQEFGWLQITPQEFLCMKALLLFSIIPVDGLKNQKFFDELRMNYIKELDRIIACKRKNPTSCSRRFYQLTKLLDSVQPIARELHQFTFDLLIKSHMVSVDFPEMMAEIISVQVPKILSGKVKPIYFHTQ

Tests used:
Lck [1] = target: Lck (UniProt P06239); test: in vitro translated ER and MNAR with purified kinase, pull-down (summary in the Conclusions)
Lck [2] = target: Lck (UniProt P06239); test: pull-down (closing summary of the examples)
Lck [3] = target: Lck (UniProt P06239); test: in vitro translated ERα and MNAR with purified Lck, anti-Lck pull-down, with or without 1 µM E2
[4] = target: estrogen receptor beta (ERβ), full-length (UniProt Q92731); test: pull-down (closing summary of the examples)
[5] = target: estrogen receptor alpha (ERα), full-length (UniProt P03372); test: pull-down (closing summary of the examples)
[6] = target: estrogen receptor beta (ERβ), full-length (UniProt Q92731); test: pull-down of in vitro translated [35S]-receptor with flag-MNAR (SF9 extract) on anti-FLAG sepharose, autoradiography
[7] = target: estrogen receptor alpha (ERα), full-length (UniProt P03372); test: as above
[8] = target: glucocorticoid receptor (GR) (UniProt P04150); test: pull-down of in vitro translated [35S]-receptor with flag-MNAR (SF9 extract) on anti-FLAG sepharose, with and without hormone
androgen receptor (AR) = androgen receptor (AR) (UniProt P10275); test: as above
[9] = target: estrogen receptor beta (ERβ), full-length (UniProt Q92731); test: pull-down (summary of the result in the Conclusions)
[10] = target: estrogen receptor alpha (ERα), full-length (UniProt P03372); test: as above
Lck [11] = target: Lck (UniProt P06239); test: in vitro translated ERβ with purified Lck, antibody pull-down, autoradiography
Lck [12] = target: Lck (UniProt P06239); test: in vitro translated ERα with purified Lck, pull-down with anti-Lck antibody and protein A, autoradiography
[13] = target: estrogen receptor alpha (ERα), full-length (UniProt P03372); test: co-immunoprecipitation with ERα antiserum from MCF-7 cells, probed with rabbit polyclonal anti-MNAR antibody
[14] = target: estrogen receptor alpha (ERα), full-length (UniProt P03372); test: co-immunoprecipitation with ERα antiserum from MCF-7 cells, Western blot with anti-MNAR antibody; enhanced by E2
Lck [15] = target: Lck (UniProt P06239); test: in vitro translated ERβ and MNAR with purified Lck, antibody pull-down, with or without E2

Measured: binding

MNAR-ERα complex (from UniProt P03372 1-595)
binds: Lck [1] | Lck [2] | Lck [3]

full-length flag-MNAR (from UniProt Q8IZL8 2-1130)
binds: [4] | [5] | [6] | [7] | [8] | androgen receptor (AR) | [9] | [10]

estrogen receptor beta (ERβ), full-length (from UniProt Q92731 1-530)
binds: Lck [11]

estrogen receptor alpha (ERα), full-length (from UniProt P03372 1-595)
binds: Lck [12]

modulator of non-genomic activity of nuclear receptors (MNAR) (from UniProt Q8IZL8 2-1130)
binds: [13] | [14]

MNAR-ERβ complex (from UniProt Q92731 1-530)
binds: Lck [1] | Lck [2] | Lck [15]
